Some of the results follow.
Assays:
Experiment in all cases: log2 fold change, soluble protein after heating vs DMSO (PISA); higher = thermal stabilisation; K562 lysate, 10 uM; active = over 0.2 and 3.5 SD of the protein, either way, in both replicates (recomputed)
[1] = compound: CCCS(=O)(=O)Nc1ccc(F)c(C(=O)c2c[nH]c3ncc(-c4ccc(Cl)cc4)cc23)c1F [vemurafenib]
In short: (§1)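 K562 pellets were dounce-homogenised in PBS pH 7.4 containing 1 mM MgCl2, and the crude extract, at 1 mg/mL protein, was exposed to 10 μM compound for 30 min. Aliquots were heated for 3 min across 48°C-58°C, pooled, brought to 0.5% NP-40 at 4°C and spun at 21,000xg for 90 min, with the supernatant taken as soluble protein. TMTpro 16plex LC-MS/MS with equalised channel sums quantified that protein. Values are log-two fold changes in thermal stability relative to solvent controls, taken from duplicates.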

Chains of the proteins cited; added tags and fusions are not shown. Lines headed by an entry give the natural chain unless they say otherwise; changes in a name come on top.
UniProt P53370: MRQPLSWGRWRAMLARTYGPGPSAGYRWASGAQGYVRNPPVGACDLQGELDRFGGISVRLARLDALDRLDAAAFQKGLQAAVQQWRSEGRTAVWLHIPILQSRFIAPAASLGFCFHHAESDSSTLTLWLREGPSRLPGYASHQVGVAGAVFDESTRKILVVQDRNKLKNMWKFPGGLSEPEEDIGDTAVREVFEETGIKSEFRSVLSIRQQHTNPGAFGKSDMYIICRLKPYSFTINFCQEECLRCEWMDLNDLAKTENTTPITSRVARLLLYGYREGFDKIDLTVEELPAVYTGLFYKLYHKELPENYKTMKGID
UniProt P0C024: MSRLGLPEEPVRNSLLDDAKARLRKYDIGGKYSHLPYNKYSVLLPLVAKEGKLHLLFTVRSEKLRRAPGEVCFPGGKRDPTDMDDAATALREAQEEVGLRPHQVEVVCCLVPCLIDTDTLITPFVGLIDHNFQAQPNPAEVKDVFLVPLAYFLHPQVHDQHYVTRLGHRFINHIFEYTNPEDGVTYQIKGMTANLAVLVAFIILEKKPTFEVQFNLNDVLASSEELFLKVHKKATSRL
UniProt Q96CB9: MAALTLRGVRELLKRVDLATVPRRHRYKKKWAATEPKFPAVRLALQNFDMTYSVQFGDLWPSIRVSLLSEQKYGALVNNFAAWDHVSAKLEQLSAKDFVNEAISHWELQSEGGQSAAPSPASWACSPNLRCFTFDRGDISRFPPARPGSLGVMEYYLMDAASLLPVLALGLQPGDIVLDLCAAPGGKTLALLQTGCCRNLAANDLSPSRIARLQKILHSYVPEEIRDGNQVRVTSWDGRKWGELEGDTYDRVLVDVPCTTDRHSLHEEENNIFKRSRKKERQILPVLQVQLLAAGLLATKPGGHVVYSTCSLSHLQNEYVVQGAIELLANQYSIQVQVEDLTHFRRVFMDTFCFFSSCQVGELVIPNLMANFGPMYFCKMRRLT
UniProt Q8TB37: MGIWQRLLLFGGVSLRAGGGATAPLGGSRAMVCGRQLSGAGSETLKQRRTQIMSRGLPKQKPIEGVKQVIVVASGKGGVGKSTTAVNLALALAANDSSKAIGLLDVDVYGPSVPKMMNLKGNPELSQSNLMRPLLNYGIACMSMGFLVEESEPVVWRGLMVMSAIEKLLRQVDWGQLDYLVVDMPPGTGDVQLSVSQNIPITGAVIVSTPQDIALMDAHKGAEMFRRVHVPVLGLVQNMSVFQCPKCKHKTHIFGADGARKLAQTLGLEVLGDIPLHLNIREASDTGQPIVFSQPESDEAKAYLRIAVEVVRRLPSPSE
UniProt Q96AB6: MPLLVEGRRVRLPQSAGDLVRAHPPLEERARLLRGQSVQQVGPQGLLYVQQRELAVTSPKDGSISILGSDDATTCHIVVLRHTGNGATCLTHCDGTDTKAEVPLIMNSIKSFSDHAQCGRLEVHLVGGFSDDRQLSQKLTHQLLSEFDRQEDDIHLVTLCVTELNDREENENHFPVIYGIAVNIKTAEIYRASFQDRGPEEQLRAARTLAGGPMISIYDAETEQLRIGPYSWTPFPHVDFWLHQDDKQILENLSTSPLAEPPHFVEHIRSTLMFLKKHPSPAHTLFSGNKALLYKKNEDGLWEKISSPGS
UniProt Q9NZJ9: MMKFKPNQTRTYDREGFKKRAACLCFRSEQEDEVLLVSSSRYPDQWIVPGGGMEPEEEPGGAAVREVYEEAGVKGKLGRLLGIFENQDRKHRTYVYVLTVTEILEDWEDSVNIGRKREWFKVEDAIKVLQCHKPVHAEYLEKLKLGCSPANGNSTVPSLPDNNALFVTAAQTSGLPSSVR
UniProt Q13287: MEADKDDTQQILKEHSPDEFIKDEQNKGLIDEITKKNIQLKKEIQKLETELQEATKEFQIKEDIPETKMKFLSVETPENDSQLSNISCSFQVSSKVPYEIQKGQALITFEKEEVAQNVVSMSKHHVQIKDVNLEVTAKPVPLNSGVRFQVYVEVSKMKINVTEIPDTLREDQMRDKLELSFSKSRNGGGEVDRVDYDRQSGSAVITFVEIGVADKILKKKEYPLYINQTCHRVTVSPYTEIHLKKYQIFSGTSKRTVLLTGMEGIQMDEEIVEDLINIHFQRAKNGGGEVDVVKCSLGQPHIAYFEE
UniProt Q8WTT2: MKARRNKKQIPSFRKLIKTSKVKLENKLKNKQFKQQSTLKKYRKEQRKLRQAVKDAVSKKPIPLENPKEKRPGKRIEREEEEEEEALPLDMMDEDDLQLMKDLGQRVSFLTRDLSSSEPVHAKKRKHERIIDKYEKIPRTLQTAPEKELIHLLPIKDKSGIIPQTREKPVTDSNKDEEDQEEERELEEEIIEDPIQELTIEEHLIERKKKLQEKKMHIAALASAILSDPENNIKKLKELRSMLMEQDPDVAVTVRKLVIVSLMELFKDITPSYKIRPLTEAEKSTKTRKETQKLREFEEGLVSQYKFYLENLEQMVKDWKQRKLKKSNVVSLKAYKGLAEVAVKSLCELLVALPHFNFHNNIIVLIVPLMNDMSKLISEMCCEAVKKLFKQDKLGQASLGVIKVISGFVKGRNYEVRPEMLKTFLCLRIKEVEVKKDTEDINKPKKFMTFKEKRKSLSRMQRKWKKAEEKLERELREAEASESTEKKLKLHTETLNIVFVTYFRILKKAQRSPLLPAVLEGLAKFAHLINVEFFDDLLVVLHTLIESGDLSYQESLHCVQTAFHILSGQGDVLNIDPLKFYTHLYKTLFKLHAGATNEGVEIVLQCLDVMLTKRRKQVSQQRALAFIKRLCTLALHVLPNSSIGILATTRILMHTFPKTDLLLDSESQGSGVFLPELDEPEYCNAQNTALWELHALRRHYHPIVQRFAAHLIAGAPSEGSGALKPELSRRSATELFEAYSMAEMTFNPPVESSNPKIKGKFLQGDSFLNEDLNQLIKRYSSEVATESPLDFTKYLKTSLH
UniProt Q5C9Z4: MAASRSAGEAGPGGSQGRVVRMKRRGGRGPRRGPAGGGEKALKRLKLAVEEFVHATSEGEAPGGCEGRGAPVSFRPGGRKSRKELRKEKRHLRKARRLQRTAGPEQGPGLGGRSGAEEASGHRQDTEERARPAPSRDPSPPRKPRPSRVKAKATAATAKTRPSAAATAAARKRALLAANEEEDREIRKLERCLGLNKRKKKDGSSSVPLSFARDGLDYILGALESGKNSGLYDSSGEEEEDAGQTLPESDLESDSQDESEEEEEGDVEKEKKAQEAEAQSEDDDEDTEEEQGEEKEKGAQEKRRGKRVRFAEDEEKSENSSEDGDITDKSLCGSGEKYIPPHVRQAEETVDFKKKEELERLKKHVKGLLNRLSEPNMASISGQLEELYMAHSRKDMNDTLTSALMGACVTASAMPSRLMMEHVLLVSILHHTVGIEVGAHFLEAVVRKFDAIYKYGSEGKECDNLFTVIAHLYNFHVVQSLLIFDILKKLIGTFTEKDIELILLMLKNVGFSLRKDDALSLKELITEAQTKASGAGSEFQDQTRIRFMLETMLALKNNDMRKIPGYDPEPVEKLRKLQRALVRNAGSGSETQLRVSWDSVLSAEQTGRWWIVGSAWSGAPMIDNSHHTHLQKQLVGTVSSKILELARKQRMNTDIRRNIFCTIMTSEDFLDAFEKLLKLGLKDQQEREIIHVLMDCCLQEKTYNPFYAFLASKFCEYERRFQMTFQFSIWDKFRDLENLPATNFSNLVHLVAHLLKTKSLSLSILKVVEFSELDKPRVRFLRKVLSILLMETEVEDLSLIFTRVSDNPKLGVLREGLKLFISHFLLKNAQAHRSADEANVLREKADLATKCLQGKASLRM
UniProt O96028: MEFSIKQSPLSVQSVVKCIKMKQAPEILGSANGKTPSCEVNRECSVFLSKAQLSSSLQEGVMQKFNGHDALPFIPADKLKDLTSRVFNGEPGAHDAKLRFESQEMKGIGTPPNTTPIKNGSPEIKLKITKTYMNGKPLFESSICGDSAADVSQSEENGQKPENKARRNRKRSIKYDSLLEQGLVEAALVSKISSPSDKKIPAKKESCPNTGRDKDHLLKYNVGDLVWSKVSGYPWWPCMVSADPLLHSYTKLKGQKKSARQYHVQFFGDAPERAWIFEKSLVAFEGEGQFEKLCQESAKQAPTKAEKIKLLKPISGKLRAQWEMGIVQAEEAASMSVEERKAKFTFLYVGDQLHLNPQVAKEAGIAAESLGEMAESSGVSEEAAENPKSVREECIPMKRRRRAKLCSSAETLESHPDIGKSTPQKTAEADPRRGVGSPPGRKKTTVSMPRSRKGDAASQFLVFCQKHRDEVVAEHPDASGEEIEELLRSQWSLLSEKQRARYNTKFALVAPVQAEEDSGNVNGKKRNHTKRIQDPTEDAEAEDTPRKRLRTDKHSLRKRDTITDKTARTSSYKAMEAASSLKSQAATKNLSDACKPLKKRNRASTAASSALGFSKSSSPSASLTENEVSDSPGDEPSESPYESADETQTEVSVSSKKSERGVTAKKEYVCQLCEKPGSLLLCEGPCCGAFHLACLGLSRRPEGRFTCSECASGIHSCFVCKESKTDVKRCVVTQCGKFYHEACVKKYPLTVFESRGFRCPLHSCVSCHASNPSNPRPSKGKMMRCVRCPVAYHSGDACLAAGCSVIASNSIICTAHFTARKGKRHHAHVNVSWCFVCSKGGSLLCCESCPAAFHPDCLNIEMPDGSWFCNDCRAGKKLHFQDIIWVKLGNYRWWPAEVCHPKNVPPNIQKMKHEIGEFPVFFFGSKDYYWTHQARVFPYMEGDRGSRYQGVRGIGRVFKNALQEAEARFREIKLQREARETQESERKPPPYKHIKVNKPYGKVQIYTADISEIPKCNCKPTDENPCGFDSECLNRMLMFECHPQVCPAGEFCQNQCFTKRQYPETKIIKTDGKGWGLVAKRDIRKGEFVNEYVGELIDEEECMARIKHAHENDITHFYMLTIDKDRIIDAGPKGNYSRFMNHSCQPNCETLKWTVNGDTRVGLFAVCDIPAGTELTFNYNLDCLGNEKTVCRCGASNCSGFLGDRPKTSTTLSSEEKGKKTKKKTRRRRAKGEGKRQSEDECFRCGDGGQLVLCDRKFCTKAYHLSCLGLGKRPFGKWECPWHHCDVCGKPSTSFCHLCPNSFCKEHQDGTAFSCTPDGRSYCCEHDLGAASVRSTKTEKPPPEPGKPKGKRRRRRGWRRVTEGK
UniProt Q12980: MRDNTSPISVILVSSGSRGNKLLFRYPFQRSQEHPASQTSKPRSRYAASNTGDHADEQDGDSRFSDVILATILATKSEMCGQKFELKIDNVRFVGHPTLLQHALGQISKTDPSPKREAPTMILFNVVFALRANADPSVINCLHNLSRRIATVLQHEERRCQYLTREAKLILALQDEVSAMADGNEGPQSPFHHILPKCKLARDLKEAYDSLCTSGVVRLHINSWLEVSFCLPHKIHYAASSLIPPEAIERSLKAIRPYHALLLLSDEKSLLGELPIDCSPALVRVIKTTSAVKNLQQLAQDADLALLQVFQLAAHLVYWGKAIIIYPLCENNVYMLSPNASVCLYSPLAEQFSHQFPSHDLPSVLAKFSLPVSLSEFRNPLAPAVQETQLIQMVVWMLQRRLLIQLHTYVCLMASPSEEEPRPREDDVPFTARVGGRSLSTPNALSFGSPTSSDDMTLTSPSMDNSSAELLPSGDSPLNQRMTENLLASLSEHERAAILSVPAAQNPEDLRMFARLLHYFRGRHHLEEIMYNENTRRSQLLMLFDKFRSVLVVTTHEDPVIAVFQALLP
UniProt Q9GZP1: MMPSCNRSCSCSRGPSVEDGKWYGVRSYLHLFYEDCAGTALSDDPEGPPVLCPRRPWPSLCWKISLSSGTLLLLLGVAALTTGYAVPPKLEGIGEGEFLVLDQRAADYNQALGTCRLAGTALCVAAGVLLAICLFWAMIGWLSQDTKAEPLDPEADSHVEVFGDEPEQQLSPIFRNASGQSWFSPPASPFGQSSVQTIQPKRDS
UniProt P55055, whole entry, looked up: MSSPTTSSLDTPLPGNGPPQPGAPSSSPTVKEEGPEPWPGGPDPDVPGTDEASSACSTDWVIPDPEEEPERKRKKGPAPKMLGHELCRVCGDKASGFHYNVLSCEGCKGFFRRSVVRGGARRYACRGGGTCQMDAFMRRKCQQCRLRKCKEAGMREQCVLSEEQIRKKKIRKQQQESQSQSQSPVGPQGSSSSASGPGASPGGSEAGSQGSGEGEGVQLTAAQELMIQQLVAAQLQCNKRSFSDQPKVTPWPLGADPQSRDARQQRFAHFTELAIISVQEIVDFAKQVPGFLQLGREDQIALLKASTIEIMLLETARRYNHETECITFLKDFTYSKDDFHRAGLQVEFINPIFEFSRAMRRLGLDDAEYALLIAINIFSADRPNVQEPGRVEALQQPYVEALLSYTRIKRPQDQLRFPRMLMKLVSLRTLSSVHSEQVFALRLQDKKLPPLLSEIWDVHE

[2] = compound: CC[C@@H]1C(=O)N(C)c2cnc(Nc3ccc(C(=O)NC4CCN(C)CC4)cc3OC)nc2N1C1CCCC1
In short: as §1

[3] = compound: CCn1c(C(=O)N(C2CC2)C2CC2)cc2c3c(ncn3C)c(Nc3cc(C)n(C)n3)nc21
In short: as §1

[4] = compound: CN1CCN(CCOc2cc(OC3CCOCC3)c3c(Nc4c(Cl)ccc5c4OCO5)ncnc3c2)CC1 [saracatinib]
In short: as §1

[5] = compound: CN1CCN(c2nc(C3=C(c4c[nH]c5ccccc45)C(=O)NC3=O)c3ccccc3n2)CC1 [sotrastaurin]
In short: as §1

[6] = compound: CN1CCc2c(c3ccccc3n2Cc2ccc(C(=O)NO)cc2)C1 [Tubastatin A]
In short: as §1

[7] = compound: CNC(=O)C1=CC=CC=C1NC2=NC(=NC=C2Cl)NC3=C(C=C(C=C3)N4CCOCC4)OC
In short: as §1

[8] = compound: CNC(=O)c1ccc(Nc2ncc(C(F)(F)F)c(NCc3nccnc3N(C)S(C)(=O)=O)n2)cc1 [defactinib]
In short: as §1

[9] = compound: CNc1nc(-c2ccc3c(N)n[nH]c3c2)cc(N2C[C@@H](C(=O)NC3CCCCC3)CC[C@H]2C)n1
In short: as §1

[10] = compound: COC(=O)N[C@@H](C)CNc1nccc(-c2cn(C(C)C)nc2-c2cc(Cl)cc(NS(C)(=O)=O)c2F)n1 [encorafenib]
In short: as §1

[11] = compound: COC(=O)[C@H](CCSC)NC(=O)C1=C(C=C(C=C1)NC[C@H](CS)N)C2=CC=CC=C2
In short: as §1

[12] = compound: CCCS(=O)(=O)Nc1ccc(F)c(C(=O)c2c[nH]c3ncc(Cl)cc23)c1F
In short: as §1

[13] = compound: CCN(CCCOc1ccc2c(Nc3cc(CC(=O)Nc4cccc(F)c4)[nH]n3)ncnc2c1)CCOP(=O)(O)O [barasertib]
In short: as §1

[14] = compound: CC[C@@H]1C(=O)N(C)c2cnc(Nc3ccc(C(=O)N[C@H]4CC[C@H](N5CCN(CC6CC6)CC5)CC4)cc3OC)nc2N1C(C)C [volasertib]
In short: as §1

[15] = compound: CCn1cc(-c2ccnc3[nH]c(-c4cccc(CN(C)C)c4)cc23)c(-c2ccc(NC(=O)N(C)C)cc2)n1
In short: as §1

[16] = compound: CN1CCC(CNc2ccc3ncc(-c4cccc(OC(F)(F)F)c4)n3n2)CC1
In short: as §1

[17] = compound: CN1CC[C@H](c2c(O)cc(O)c3c(=O)cc(-c4ccccc4Cl)oc23)[C@H](O)C1 [alvocidib]
In short: as §1

[18] = compound: COc1cc2nc(-c3cc(F)ccc3O)nc(N[C@@H]3CNC[C@H]3C(C)(C)O)c2cc1OC
In short: as §1

[19] = compound: COc1cc(Nc2ncc3c(n2)-c2ccc(Cl)cc2C(c2c(F)cccc2OC)=NC3)ccc1C(=O)O [alisertib]
In short: as §1

[20] = compound: COc1cc2ncnc(Nc3ccc(F)c(Cl)c3)c2cc1OCCCN1CCOCC1 [gefitinib]
In short: as §1

Measured: log2 fold change

NUDT6 (UniProt P53370)
inactive: [1] 0.022 | [2] 0.091 | [3] -0.085 | [4] 0.05 | [5] -0.033 | [6] 0.042 | [7] 0.154 | [8] -0.002 | [9] -0.024 | [10] -0.021 | [11] -0.015

NUDT7 (UniProt P0C024)
inactive: [1] 0.052 | [12] -0.058 | [13] 0.117 | [2] 0.111 | [14] -0.081 | [3] -0.034 | [15] 0.087 | [16] -0.205 | [4] -0.05 | [5] -0.008 | [17] -0.043 | [6] 0.099 | [7] 0.188 | [8] -0.057 | [9] 0.194 | [10] 0.007 | [11] 0.012 | [18] -0.058

NSUN4 (UniProt Q96CB9)
inactive: [1] 0.192 | [12] -0.068 | [13] 0.018 | [14] 0.051 | [3] -0.041 | [4] 0.251 | [5] 0.066 | [6] -0.115 | [7] -0.134 | [8] -0.094 | [9] 0.071 | [19] -0.048 | [18] 0.093 | [20] 0.033

NUBPL (UniProt Q8TB37)
inactive: [1] 0.193 | [2] 0.072 | [4] -0.043 | [8] -0.105 | [9] 0.055 | [10] -0.012 | [11] -0.149

NTAN1 (UniProt Q96AB6)
inactive: [1] -0.105 | [13] -0.057 | [2] 0.03 | [3] -0.003 | [15] -0.003 | [16] 0.059 | [4] 0.047 | [5] 0.016 | [17] -0.01 | [6] 0.02 | [7] -0.158 | [8] -0.034 | [9] 0.073 | [10] 0.145 | [11] -0.003

NUDT4 isoform 2 (UniProt Q9NZJ9)
inactive: [1] 0.009 | [12] 0.021 | [13] -0.05 | [2] 0.013 | [14] 0.005 | [3] -0.018 | [15] -0.068 | [16] 0.058 | [4] 0.076 | [5] 0 | [17] -0.001 | [6] -0.101 | [7] 0.01 | [8] -0.07 | [9] 0.073 | [10] 0.025 | [11] -0.129 | [19] 0.012 | [18] 0.003 | [20] -0.023

NMI (UniProt Q13287)
inactive: [1] 0.011 | [12] -0.012 | [13] 0.013 | [2] 0.014 | [14] 0.014 | [3] -0.044 | [15] 0.014 | [16] 0.011 | [4] -0.022 | [5] -0.019 | [17] 0 | [6] 0.027 | [7] -0.003 | [8] -0.004 | [9] 0.029 | [10] 0.001 | [11] -0.001 | [19] 0.02 | [18] 0.003 | [20] 0.002

Looked up one by one from the entries so far, 2 records:
NUBPL (UniProt Q8TB37)
inactive: [1] 0.193 | [2] 0.072 | [4] -0.043 | [8] -0.105 | [9] 0.055 | [10] -0.012 | [11] -0.149

NMI (UniProt Q13287)
inactive: [1] 0.011 | [12] -0.012 | [13] 0.013 | [2] 0.014 | [14] 0.014 | [3] -0.044 | [15] 0.014 | [16] 0.011 | [4] -0.022 | [5] -0.019 | [17] 0 | [6] 0.027 | [7] -0.003 | [8] -0.004 | [9] 0.029 | [10] 0.001 | [11] -0.001 | [19] 0.02 | [18] 0.003 | [20] 0.002

(next part)

NOC3L (UniProt Q8WTT2)
inactive: [1] 0.033 | [12] -0.004 | [13] 0.071 | [2] 0.001 | [14] 0.021 | [3] -0.036 | [15] -0.118 | [16] 0.065 | [4] 0.032 | [5] -0.008 | [17] -0.095 | [6] -0.05 | [7] -0.025 | [8] -0.009 | [9] 0.016 | [10] 0.081 | [11] -0.064 | [19] 0.003 | [18] -0.014 | [20] 0.23

NSUN7 (UniProt Q8NE18)
inactive: [1] -0.098 | [12] -0.046 | [13] -0.084 | [2] -0.016 | [14] 0.077 | [3] -0.049 | [15] -0.039 | [16] -0.032 | [5] 0.017 | [17] -0.191 | [6] 0.176 | [7] -0.001 | [8] -0.035 | [10] 0.21 | [11] -0.026 | [18] -0.006

NOM1 (UniProt Q5C9Z4)
inactive: [1] 0.033 | [12] -0.022 | [2] -0.052 | [14] -0.045 | [15] -0.126 | [16] 0.097 | [4] 0.115 | [5] -0.012 | [17] -0.023 | [8] -0.016 | [9] -0.029 | [10] -0.261 | [11] 0.224 | [19] 0.014 | [18] 0.045 | [20] 0.025

NSD2 (UniProt O96028)
inactive: [1] 0.184 | [12] 0.229 | [13] -0.141 | [2] 0.132 | [14] -0.673 | [3] -0.112 | [15] 0.147 | [16] -0.12 | [5] 0.066 | [17] 0.013 | [6] 0.058 | [8] -0.156 | [10] 0.044 | [11] 0.16 | [19] 0.043 | [18] 0.039 | [20] 0.104

NSD1 (UniProt Q96L73)
inactive: [1] -0.022 | [12] 0.033 | [2] -0.066 | [14] -0.049 | [3] 0.019 | [15] -0.012 | [16] 0.005 | [4] -0.093 | [17] 0.004 | [6] -0.047 | [7] 0.022 | [8] 0.019 | [9] 0.025 | [10] -0.013 | [11] -0.014 | [19] 0.06 | [18] -0.003 | [20] 0

NPRL3 (UniProt Q12980)
inactive: [1] 0.018 | [3] 0.12 | [15] -0.164 | [16] 0.033 | [5] 0.057 | [17] -0.029 | [6] 0.027 | [7] 0.102 | [8] 0.092 | [19] -0.058 | [20] -0.015

NUB1 (UniProt H7C5N1)
inactive: [3] 0.312 | [6] 0.209

NRSN2 (UniProt Q9GZP1)
inactive: [4] -0.177 | [9] -0.114

NRDE2 (UniProt Q9H7Z3)
inactive: [12] -0.073 | [13] 0.033 | [14] 0.049 | [3] -0.188 | [4] -0.459 | [6] -0.178 | [9] -0.1 | [19] 0.003 | [18] 0.102 | [20] 0.005

NR1H2 (UniProt P55055)
inactive: [3] 0.179 | [6] -0.034
